Results as given in the supplement of paper PMC12889115.
Some of the results follow. Values are raw readings; no control value is given beside them.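 Primary screen: polymyxin B was added at a level permeabilizing Salmonella outer membranes while sparing inner membranes. DMSO wells, both with and without polymyxin B, established maximum growth. Plate-to-plate variation meant each plate was ranked on its own, and the lowest-OD600 compounds were selected as hits.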

System: Salmonella enterica serovar Typhimurium SL1344
Test: bacterial growth OD600 after 18 h with compound and polymyxin B; higher = more bacterial growth (less inhibition)
Details: 50 µM, Mueller-Hinton broth

SMILES | bacterial growth OD600 (polymyxin B 1 µg/mL) | bacterial growth OD600 (polymyxin B 0.75 µg/mL)
Cc1ccc(SC2CCN(Cc3nc(Cc4ccccc4F)no3)CC2)cc1 | 0.828 | 
CCOC(=O)C1(Cc2ccccc2)CCN(Cc2cccc(F)c2F)CC1 | 0.79 | 
CCc1ccc(CN(C)c2ccc(-c3nc(COC)no3)cn2)nc1 |  | 0.764
OCCOc1ccccc1CN1CCCC(Nc2ccc(F)c(F)c2)C1 (stereo not given) | 0.995 | 
COc1ccc(C(=O)N2CCC(C3(C)NC(=O)N(Cc4cccc(OC)c4OC)C3=O)CC2)cc1 (stereo not given) |  | 0.804
CCN1CCN(CC(O)COc2cccc(CN3CCCCO3)c2)CC1 (stereo not given) | 1.13 | 
COC(=O)C1CCCCN1C(=O)c1c(OC)cc(=O)n2c1CCN(Cc1ccc(C(C)C)cc1)CC2 (stereo not given) |  | 0.815
C=C(C)CNC(=O)c1ccc(OC2CCN(C(=O)C3CC3)CC2)cc1 | 1.02 | 
CC#CC(=O)N1CCc2[nH]nc(-c3ccc4c(c3)OCO4)c2C1 |  | 0.71
CN(Cc1ccccn1)Cc1cn(Cc2ccccc2)nc1-c1ccc2c(c1)OCO2 | 0.815 | 
Cc1ccc2c(c1)CN(Cc1ccccc1O)CC(C)O2 (stereo not given) |  | 0.661
C=CCNC(=O)N1CCC2(CCCN(CC3CCCCC3)C2=O)C1 (stereo not given) | 0.809 | 
COc1cccc(OCc2nc(C(=O)NCc3cccnc3)co2)c1 | 0.991 | 
COc1ccc(NC(=O)CCC2CCN(Cc3ccc(SC)cc3)CC2)c(OC)c1 |  | 0.773
COc1cccc(OCc2nc(C(=O)N3CCCC3c3nccs3)co2)c1 (stereo not given) | 0.947 | 
COc1cccc(OCC(O)CNC(=O)c2oc3ccc(C)cc3c2C)c1 (stereo not given) | 0.884 | 
COc1ccccc1OC1CCN(C(=O)CCC2(Cc3ccccc3)CCC(=O)N2)CC1 (stereo not given) |  | 0.762
O=C(C1CCN(c2nc(-c3ccccc3)nc3c2CCC3)CC1)N1CCC[C@H]1CO |  | 0.924
Cn1cnnc1SCC(=O)NC1CCCN(CCc2ccccc2)C1 (stereo not given) |  | 0.939
COCCn1cc(C(=O)NCC2(c3ccccc3)CCCC2)c(=O)c(C(=O)N2CCCCC2CO)c1 (stereo not given) |  | 0.818

Retrieved by compound from the entries so far (two):
SMILES | bacterial growth OD600 (polymyxin B 1 µg/mL) | bacterial growth OD600 (polymyxin B 0.75 µg/mL)
CN(Cc1ccccn1)Cc1cn(Cc2ccccc2)nc1-c1ccc2c(c1)OCO2 | 0.815 | 
COCCn1cc(C(=O)NCC2(c3ccccc3)CCCC2)c(=O)c(C(=O)N2CCCCC2CO)c1 (stereo not given) |  | 0.818
